Results from US11337984B2, “Methods for treating, diagnosing and prognosing a haematological malignancy” (Institut de Recerca Contra La Leucèmia Josep Carreras, priority 2014, dated 2022).
Some entries share one result that the patent states for a list of compounds.

System: AML cells
Assay: Secondary transplants of engrafted AML cells in NSG mice
Type: in vivo, mouse
Details: 8 weeks untreated

CN1CCc2cccc3c2[C@H]1Cc1ccc(O)c(O)c1-3 [Apomorphine, (6aR)-6-methyl-5,6,6a,7-tetrahydro-4H-dibenzo[de,g]quinoline-10,11-diol]
AML cells detected in secondary recipients (human CD45 positive cells referred to control): Less than 35%
